Data on one molecule can be found in PMC2685004, “Recruitment of a SAP18-HDAC1 Complex into HIV-1 Virions and Its Requirement for Viral Replication” (PLoS Pathogens, 2009).

Test [1] deals with LexADB (LexA DNA binding domain) alone. Kind of test: two-hybrid; LexADB fusions as bait, GAL4AC fusion of the HL60 cDNA library clone as prey, in yeast.
Another test deals with LexADB-Laminin. The test is described as above.

No constants are given. Whether binding was seen depends on the method and setting. Sequences can lack the tags named with a protein.

B1: GAL4AC fusion of SAP18 fragment (aa 45-153), clone #18829-49.1 (domain or fragment, UniProt O00422 45-153)
chain: EFSRGNVPSSELQIYTWMDATLKELTSLVKEVYPEARKKGTHFNFAIVFTDVKRPGYRVKEIGSTMSGRKGTDDSMTLQSQKFQIGDYLDIAITPPNRAPPPSGRMRPY
With B1, the binding result (in test [1]; with LexADB-Laminin) was “no binding” throughout.
